# Test results reported in the supplement of paper PMC11150407.
# The campaign covered roughly 3,000 compounds. About 45 (2%) showed an effect of 50% or more. The list shows a part of the results.
# System: MOLM1 and UCSD/AML1 (averaged)
# Test: cell viability relative to DMSO control (POC); higher = less growth inhibition
# Conditions: 1 µM; 72 h
# Experimental: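 Primary viability screen in the 3q26 EVI1-high AML cell lines MOLM1 and UCSD/AML1, compounds at 1 uM for 72 h. ATP CellTiter-Glo read-out given as percent viable over DMSO control (POC), averaged over duplicates. This mapping covers the TimTec NDL-3000 natural derivative library, whose compounds are identified by TimTec catalogue codes (ST...).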
row,Compound,cell viability [%]
1,CCOc1ccc(-c2oc3ccccc3c(=O)c2OS(=O)(=O)c2ccc(Br)cc2)cc1,89.2
2,COc1ccc2c(c1)c(CC(=O)NC(C)c1ccccc1)c(C)n2C(=O)c1ccc(Cl)cc1 (configuration not stated),82.8
3,Cc1cc2occ(Br)c(=O)c2cc1Cl,86.9
4,O=C(/C=C/c1cccc(O)c1)c1ccccc1O,78.9
5,O=C(/C=C/c1ccc(Cl)c(Cl)c1)c1ccc2ccccc2c1O,103
6,Cc1cc2c(c(O)c1-c1c(C)cc3c(c1O)/C(=C/NNC(=O)c1ccncc1)C(=O)C(O)=C3C(C)C)/C(=C/NNC(=O)c1ccncc1)C(=O)C(O)=C2C(C)C,86.7
7,COc1cc2c3cc1Oc1cc(ccc1O)C[C@H]1c4cc(c(OC)cc4CCN1C)Oc1cc(ccc1O)C[C@@H]3N(C)CC2,93.4
8,CCOc1ccc2oc(=O)cc(CN3CCN(Cc4nc(-c5cccc(Cl)c5)oc4C)CC3)c2c1,103
9,Cc1cc(=O)oc2cc(OC(=O)c3cccc(Cl)c3)ccc12,99.1
10,COc1cc(C2=NOC(=O)/C2=C\c2ccc(Br)cc2)cc(OC)c1OC,110
11,Cc1[nH]c2ccccc2c1CCNC(=O)c1ccccc1[N+](=O)[O-],103
12,CCN(CC)c1ccc(C2C3CCCCC3(O)CCN2C(=O)C2c3ccccc3Oc3ccccc32)cc1 (configuration not stated),93.5
13,O=c1cc(-c2ccccc2)oc2ccc(Br)cc12,83.8
14,COc1ccc(C2NCCc3c2[nH]c2ccccc32)cc1COc1ccccc1C1CCCCC1 (configuration not stated),79.3
15,CC1(C)OC2C[C@H]3[C@@H]4C[C@H](F)C5=CC(=O)C=CC5(C)[C@@]4(F)C(O)CC3(C)C2(C(=O)CO)O1 (some centres not stated),82
16,COc1ccc2[nH]c(C)c(CCNS(=O)(=O)c3c(C)[nH]c(=O)[nH]c3=O)c2c1,96.8
17,Cc1ccc(C(=O)OCC2OC(n3cc(C=O)c(=O)[nH]c3=O)CC2OC(=O)c2ccc(C)cc2)cc1 (configuration not stated),108
18,CC(=CCC/C(C)=C/COc1ccc2ccc(=O)oc2c1)CCC(=O)C(C)(C)O,101
19,CC(=O)N(c1cc(Cl)c2nc(C)cc(C)c2c1Oc1cccc(C(F)(F)F)c1)C1OC(CO)C(O)C(O)C1O (configuration not stated),94.2
20,COC(=O)C1Cc2c([nH]c3ccccc23)C(c2ccc(OC)cc2OC)N1 (configuration not stated),99.6
21,Cc1ccc(-n2c(SCC(=O)Nc3cccc(Cl)c3)nc3c(=O)[nH]cnc32)cc1,106
22,O=C(c1cccnc1)N1N=C(c2c(-c3ccccc3)c3cc(Br)ccc3[nH]c2=O)CC1c1ccccc1 (configuration not stated),82.5
23,COc1ccc(C(=O)Nc2ccccc2C(=O)Nc2cccc(C)n2)cc1OC,96.7
24,COc1ccc(Cn2c(-c3ccc(OC)cc3)nc3ccccc32)cc1,102
25,Cc1cc(S(=O)(=O)Nc2ccc(-n3ccnc3)c(Cl)c2)c2[nH]c(=O)cc(C)c2c1,95.4
26,Cc1cc(C)c2[nH]c(=O)cc(C)c2c1,98.2

# Another view of some results above.
row	Compound	cell viability [%]
3	Cc1cc2occ(Br)c(=O)c2cc1Cl	86.9
4	O=C(/C=C/c1cccc(O)c1)c1ccccc1O	78.9
5	O=C(/C=C/c1ccc(Cl)c(Cl)c1)c1ccc2ccccc2c1O	103
6	Cc1cc2c(c(O)c1-c1c(C)cc3c(c1O)/C(=C/NNC(=O)c1ccncc1)C(=O)C(O)=C3C(C)C)/C(=C/NNC(=O)c1ccncc1)C(=O)C(O)=C2C(C)C	86.7
7	COc1cc2c3cc1Oc1cc(ccc1O)C[C@H]1c4cc(c(OC)cc4CCN1C)Oc1cc(ccc1O)C[C@@H]3N(C)CC2	93.4

# The results go on:

row,Compound,cell viability [%]
1,CCc1cccc(C)c1NC(=O)CN1CCN(Cc2cc(=O)oc3cc(C)ccc23)CC1,95.4
2,Cc1[nH]c2ccc(Br)cc2c1CCNC(=O)c1cc2ccccc2oc1=O,98.9
3,Cc1cc(=O)[nH]c2ccc(S(=O)(=O)N3CCN(C(=O)c4ccco4)CC3)cc12,94
4,Cc1ccc(NC(=O)Cn2c(=O)cc(C(=O)NCc3ccccc3)c3ccccc32)cc1F,97.1
5,CCOC(=O)[C@H]1CCC(=O)N1,17.6
6,COc1ccc(-c2cc(-c3ccc4c(c3)OCO4)[nH]c(=O)c2C#N)cc1,97.1
7,COc1ccc(C(=O)NCC(C)c2ccccc2)cc1OC (configuration not stated),88.4
8,COc1cc(CNC2CCCCC2OC)cc(OC)c1OC (configuration not stated),102
9,CCCNC(=O)c1cc(=O)n(CC(=O)Nc2cccc(Br)c2)c2ccccc12,87.2
10,CNC(=O)c1cc(=O)n(CC(=O)Nc2ccccc2F)c2ccccc12,102
11,CCCc1ccc(OCCn2c(C)c(C(=O)OCC)c3cc(O)c4ccccc4c32)cc1,91.4
12,COc1cc(C(=S)N2CCOCC2)cc(OC)c1OC(=O)c1ccccc1Cl,92.5
13,COc1cccc(/C(C)=N/Nc2nc(SCC(=O)c3ccc4c(c3)OCO4)n[nH]2)c1,97.1
14,COc1cc(-c2nnc(SCC(=O)N(C)c3ccccc3)o2)cc(OC)c1OC,104
15,O=C(CCS(=O)(=O)c1ccccc1)N1CCc2ccccc2C1,104
16,Cc1ccc2c(CN3CCN(Cc4cccc(Cl)c4)CC3)cc(=O)oc2c1,103
17,COc1cc(C(=O)NO)cc(OC)c1OC,94.2
18,C=CCOc1ccc(/C=C2/Oc3ccc(C(=O)OC)cc3C2=O)cc1OC,102
19,CCOC(=O)c1c(NC(=O)c2cc(OC)c(OC)c(OC)c2)sc(C(=O)Nc2cc(C(F)(F)F)ccc2Cl)c1C,104
20,COc1cc(C(=O)Nc2ccc(Br)c(Cl)c2)cc(OC)c1OC,87
21,NC(Cc1cccc(F)c1)C(=O)O (configuration not stated),112
22,Cc1ccc(NC(=O)Cn2c(Br)nc3c2c(=O)n(C)c(=O)n3C)cc1,104
23,CC(=O)OC1C=C(C)c2ccc(O)cc2O1 (configuration not stated),102
24,COc1ccc(NC(=O)CSc2nc3ccccc3c(=O)[nH]2)cc1OC,97.5
25,COc1ccc2c3c(c(=O)oc2c1OC(C)C(=O)c1ccccc1)CCCC3 (configuration not stated),101
26,COc1cc(C2C(C#N)=C(N)Oc3n[nH]c(-c4ccccc4)c32)cc2c1OCO2 (configuration not stated),99.1

row,Compound,cell viability [%]
1,CCc1ccc(NC(=O)CSc2nc3c(=O)[nH]cnc3n2-c2ccccc2)cc1,115
2,COc1cc(C(=O)NCC(C)NC(=O)c2cc(OC)c(OC)c(OC)c2)cc(OC)c1OC (configuration not stated),99.3
3,O=C1C(Cl)=C(NC2CCN(Cc3ccccc3)CC2)C(=O)c2ccccc21,103
4,COC(=O)NCCc1cc(OC)c(OC)cc1NC(=O)c1ccc(OC)c(OC)c1,108
5,COC(=O)C1Cc2c([nH]c3ccccc23)C(C)N1 (configuration not stated),120
6,Cn1c(=O)c2c(nc(Cl)n2Cc2cccc(Br)c2)n(C)c1=O,93.3
7,O=C(CSc1nc2ccccc2c(=O)[nH]1)Nc1cccc(Cl)c1,101
8,O=C(Nc1nc2c(s1)CCCC2)c1ccc2c(c1)OCO2,89.8
9,CCOC(=O)C(CCCN=C(N)N)NC(=O)c1ccccc1 (configuration not stated),101
10,COc1ccc(C(=O)Oc2cccc(NC(=O)c3ccco3)c2)cc1OC,99.9
11,O=C(O)CNC(=O)c1ccccc1O,108
12,COc1cc(CN(C)C(=O)c2cnccn2)cc(OC)c1OC,110
13,Cn1c(=O)c2c(nc(SCc3ccccn3)n2Cc2c(F)cccc2Cl)n(C)c1=O,105
14,CCC1C(c2ccccc2)=NNc2nc3c(c(=O)n(C)c(=O)n3C)n21 (configuration not stated),91.8
15,Cc1cc(=O)oc2cc(OC3OC(CO)C(O)C(O)C3O)ccc12 (configuration not stated),111
16,Cc1cc(C)c2c(CN3CCN(C(=O)c4ccco4)CC3)cc(=O)oc2c1,97.8
17,COc1ccc(/C=C(\C#N)C(=O)OC(C)C)c(OC)c1OC,106
18,COc1cc(C=O)cc(Br)c1OCc1ccccc1Br,103
19,O=C(N/N=C/c1cc(N=Nc2cccc3ccccc23)ccc1O)c1ccc2c(c1)OCO2,64.5
20,O=C(Cn1c(=O)cc(C(=O)NCc2ccccc2)c2ccccc21)Nc1ccc2c(c1)OCCO2,93.4
21,CCCCCOc1ccc(NC(=O)C(=O)NCc2ccc(OC)cc2)cc1,92.7
22,Cc1cc(=O)oc2cc(Cl)c(OCc3ccccc3)cc12,102
23,COc1cc(C=O)cc(OC)c1OC(=O)c1ccco1,109
24,COc1cc(C2C(C#N)=C(N)Oc3c2c(C)nn3-c2ccccc2)cc([N+](=O)[O-])c1O (configuration not stated),89.7
25,Cc1cc2oc(=O)cc(O)c2cc1C,95.7
26,COc1cc(C(=O)NCCOc2ccc(C)c(C)c2)cc(OC)c1OC,97.2

# Structures above that have a nitro group on carbon:
row,Compound,cell viability [%]
11,Cc1[nH]c2ccccc2c1CCNC(=O)c1ccccc1[N+](=O)[O-],103
24,COc1cc(C2C(C#N)=C(N)Oc3c2c(C)nn3-c2ccccc2)cc([N+](=O)[O-])c1O (configuration not stated),89.7

# (next part)

row,Compound,cell viability [%]
1,CC(=O)c1ccc(NC(=O)C2Cc3ccccc3CN2S(=O)(=O)c2cccs2)cc1 (configuration not stated),97.4
2,O=C(Oc1ccc2oc(-c3ccco3)cc(=O)c2c1)c1cccc(Br)c1,107
3,O=C(Cn1c(=O)cc(C(=O)N2CCOCC2)c2ccccc21)Nc1ccc(Br)cc1,95.2
4,COc1ccc(C(=O)NC(Cc2c[nH]c3ccccc23)C(=O)O)cc1 (configuration not stated),107
5,Cc1cccc(-c2cc(=O)c3cc(Cl)c(C)cc3o2)c1,99.5
6,Cn1c(SCC(=O)Nc2ccccc2F)nc2c(=O)[nH]cnc21,89.2
7,COc1ccc(C(=O)NCCc2c(C)[nH]c3ccc(OC(F)(F)F)cc23)cc1OC,87.7
8,COc1cc(C2=NOC(=O)/C2=C\c2ccc(Cl)cc2Cl)cc(OC)c1OC,105
9,CC(=O)OC1CCC2(C)C(=CCC3C2CCC2(C)C(C(C)O)CCC32)C1 (configuration not stated),90.1
10,O=[N+]([O-])c1ccc(CSc2ncnc3c2ncn3C2OC(CO)C(O)C2O)cc1 (configuration not stated),98.5
11,CCC1CCCCO1 (configuration not stated),101
12,Nc1ncnc2nc(SCc3ccc(Cl)cc3Cl)[nH]c12,98.1
13,Cc1cc(=O)[nH]c(N2CCN(Cc3ccccc3)CC2)n1,93.2
14,COCCOC(=O)c1c(C)n(CCCNc2ccc([N+](=O)[O-])cc2Cl)c2ccc(O)cc12,97
15,CC(C)c1ccc(C2C(C#N)=C(N)Oc3c2oc(CO)cc3=O)cc1 (configuration not stated),95.6
16,CC(=O)OC1CCC2(C)C(CCC3(C)C2C(=O)C=C2C4CC(C)(C(=O)Nc5ccccc5Cl)CCC4(C)CCC23C)C1(C)C (configuration not stated),79.8
17,Cc1ccccc1Nc1nc(Nc2ccccc2C)c2ccccc2n1,81.2
18,COc1ccc(CCNC(=O)CSc2nc3c(c(=O)n(C)c(=O)n3C)n2Cc2ccccc2F)cc1OC,97
19,Nc1c(C(=O)N2CCC[C@H]2C(=O)O)sc2nc(-c3cccs3)ccc12,103
20,CN(C)CCCNc1nc(-c2ccc(Cl)cc2)nc2ccccc12,53.4
21,COc1ccc(C2c3[nH]c4ccccc4c3CCN2Cc2ccc(Cl)cc2)cc1 (configuration not stated),98.6
22,O=C1CCCC2=C1C(c1ccc(-c3cccc(C(F)(F)F)c3)o1)c1c([nH]c(=O)[nH]c1=O)N2 (configuration not stated),86.2
23,COc1ccc2[nH]cc(CCNS(=O)(=O)c3ccccc3)c2c1,110
24,CCOc1ccc(CSc2nc3c(=O)[nH]c(C)nc3n2C)cc1-n1nc2ccccc2n1,100
